Data reported in US20180009899A1 (CORVUS PHARMACEUTICALS, published 2018).
No constants are given. Whether binding was seen depends on the method and setting. Some results given as binding are weak or reduced against the parent protein; the word gives no strength.

Molecular target: T1, Cellular CD73 on MDA-MB-231 human breast cancer cells (human) (UniProt P21589)
T1 sequence (looked up): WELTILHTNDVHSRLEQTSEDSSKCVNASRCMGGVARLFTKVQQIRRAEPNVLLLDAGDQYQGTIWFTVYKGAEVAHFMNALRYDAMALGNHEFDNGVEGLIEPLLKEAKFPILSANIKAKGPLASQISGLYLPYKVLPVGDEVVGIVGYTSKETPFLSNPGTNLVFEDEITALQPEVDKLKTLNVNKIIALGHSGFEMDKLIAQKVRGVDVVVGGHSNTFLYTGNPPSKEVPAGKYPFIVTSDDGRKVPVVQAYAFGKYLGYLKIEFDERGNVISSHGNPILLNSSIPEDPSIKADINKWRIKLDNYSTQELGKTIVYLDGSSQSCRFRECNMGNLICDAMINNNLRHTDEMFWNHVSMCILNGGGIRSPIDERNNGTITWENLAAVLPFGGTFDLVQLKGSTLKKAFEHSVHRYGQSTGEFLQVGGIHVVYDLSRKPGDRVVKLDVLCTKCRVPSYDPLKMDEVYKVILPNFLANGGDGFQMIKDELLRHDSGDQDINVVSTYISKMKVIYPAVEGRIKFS
Experiment: flow cytometry on MDA-MB-231 cells, PE anti-human secondary

- binding: binds
B1: CPX-006 deglycosylated enzymatically with PNGase F (antibody, human IgG1, kappa, N297Q, V domains shown)
VH: QVQLVQSGAEVEKPGASVKVSCKASGYTFTSYWITWVRQAPGQGLEWMGDIYPGSGNTNYNEKFKTRVTITADKSTSTAYMELSSLRSEDTAVYYCAKEGGLTTEDYALDYWGQGTLVTVSS
VL: EIVLTQSPATLSLSPGERATLSCRASKNVSTSGYSYMHWYQQKPGQAPRLLIYLASNLESGIPPRFSGSGYGTDFTLTINNIESEDAAYYFCQHSRELPFTFGQGTKVEIKR
modifications: N-linked glycan on CDR L1 removed with PNGase F
